For 40 compounds, AC50 results are on record in PubChem BioAssay AID493014 (National Center for Advancing Translational Sciences (NCATS), 2011).

Molecules are shown by their SMILES. The list shows a part of the results. Further columns of the screen follow, without active or inactive calls. The list favours compounds with an active or inconclusive main result. Words in brackets tell the shape of the fitted curve; partial curves, single points and poor fits give uncertain potencies.

The assay is described as follows: qHTS Assay to Find Inhibitors of Chronic Active B-Cell Receptor Signaling. As to conditions: ABC-DLBCL IkBa-CBG/CBR reporter, luminescence ratio (green luciferase fused to IkBa over red control in TMD8 lymphoma cells), 4 h; measured here: CBR red luminescence, cell number. The method, boiled down: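 Cell line TMD8 (human ABC DLBCL), stably expressing tet-inducible CBG68-IkBa fusion and CBR; IMDM/0.5% FBS; cpd up to 46 uM; dox induction, 4 h, 37C/5% CO2; dual luminescence; green/red ratio; MG132 control.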
For the compound `O=C(NN=C1CCCCCCC1)c1ccc2ccccc2n1`, the AC50 is 15.8 µM [falling, single point].
Consider `CCOc1ccccc1NC(=O)COc1coc(CN2CCCc3ccccc32)cc1=O`, for which the AC50 is 0.82 µM [falling, full curve].
For the compound `CSCC[C@H](NC(=O)C1CCN(S(=O)(=O)c2ccc(C)cc2C)CC1)c1nc2ccccc2[nH]1`, the AC50 is 2.06 µM [rising, partial curve, poor fit].
`CCCn1c(SCC(=O)Nc2cccc(S(=O)(=O)N(C)C)c2)nc2ccccc2c1=O`: the AC50 is 1.26 µM [falling, full curve, poor fit].
Turning to `CCOC(=O)C1CCCCN1C(=O)CCc1c(C)nc2ncnn2c1C` (stereo not given), the AC50 is 3.16 µM [falling, partial curve].
`O=C(N/N=C/c1ccc(O)c(O)c1)NC12CC3CC(CC(C3)C1)C2`: the AC50 was 35.5 µM [falling, single point].
In the case of `O=C(COC(=O)CC1CCCC1)Nc1ccc(Cl)cn1`, the AC50 was 2.31 µM [rising, partial curve, poor fit].
As for `COCCNC(=O)c1ccccc1NC(=O)CCSc1ccccc1`, the AC50 is 11.2 µM [falling, partial curve, poor fit].
On to `O=C(CNC(=O)c1ccc(F)cc1)N/N=C/c1ccc(O)c([N+](=O)[O-])c1`, for which the AC50 was 0.259 µM [falling, full curve].
Consider `Cc1ccc(C(=O)OCC(=O)NCc2cc(C)c(O)c(C)c2)cc1S(=O)(=O)N1CCCCC1`, for which the AC50 was 0.259 µM [rising, full curve, poor fit].
The value for `CCOC(=O)c1cccc(NC(=O)CN2CCN(c3ccc(OC)cc3)CC2)c1` was 25.1 µM [rising, single point]; that for `COc1cc(OC)c(-c2nc3ccccc3s2)cc1OC` was 0.316 µM [rising, full curve, poor fit]; that for `CCOc1ccc(S(=O)(=O)N2CCCC(C(=O)NCC3CCCO3)C2)cc1` (stereo not given) was 6.31 µM [rising, single point].
Consider `Cc1ccc(C(=O)N(CCCN(C)C)c2nc3ccc(Cl)cc3s2)cc1C`, for which the AC50 was 35.5 µM [falling, single point].
Then `O=C(NC1CCCCC1)C(c1ccc2ncccc2c1)N(Cc1ccc2c(c1)OCO2)C(=O)c1cccs1` (stereo not given), with 7.08 µM [falling, partial curve, poor fit].
As to `COc1cc(/C=N/OCC(=O)NC23CC4CC(CC(C4)C2)C3)ccc1OCc1ccccc1`, the AC50 is 5.17 µM [rising, partial curve, poor fit].
The value for `O=C(c1cccs1)N1CCN(Cc2cn[nH]c2-c2ccc(F)cc2F)CC1` was 6.31 µM [falling, single point]; that for `O=C(Nc1c(C(=O)N2CCN(c3ccccc3)CC2)oc2ccccc12)c1ccccc1F` was 12.6 µM [rising, partial curve, poor fit].
Turning to `Cc1ccnc(NC(c2cccnc2)c2ccc3cccnc3c2O)c1` (stereo not given), the AC50 was 12.6 µM [falling, single point].
Consider `Cc1ccc(NC(=O)C2CCCN(c3ncnc4c3nc3n4CCCCC3)C2)cc1Cl` (stereo not given), for which the half-maximal activity concentration (AC50) is 35.5 µM [falling, single point].
For the compound `Cc1cc(C(=O)NN=C(Cc2ccccc2)Cc2ccccc2)c(C)o1`, the AC50 is 9.2 µM [falling, partial curve, poor fit].
Consider `Cc1ccc(NC(=O)COC(=O)COc2cccc3c2OC(C)(C)C3)cc1C`, for which the AC50 is 35.5 µM [rising, single point].
Then `CCn1c(CNc2ccc(C)cc2C)nnc1SCC(=O)N1CCCc2ccccc21`, with 4.11 µM [falling, full curve, poor fit]; and `CN1CCN(CCCNC(=O)CCN2C(=O)COc3ccccc32)CC1`, with 17.8 µM [rising, partial curve, poor fit]; and `CCOc1ccc(-c2c(=O)n(OCc3ccc([N+](=O)[O-])cc3)c3ccccc3[n+]2[O-])cc1`, with 29.1 µM [falling, single point].
As for `Cc1nonc1OCCCNc1ccc([N+](=O)[O-])cc1Cl`, the AC50 is 4.47 µM [rising, single point].
Turning to `O=C(Nc1nc(-c2cc(Cl)sc2Cl)cs1)c1cccs1`, the AC50 was 0.164 µM [rising, full curve, poor fit].
Regarding `CC(=C\c1ccccc1)/C=C1/SC(=S)N(C(C(=O)O)C(C)C)C1=O` (stereo not given), the AC50 is 3.55 µM [falling, partial curve, poor fit].
As to `O=C(NCC1CCCO1)c1sc2cc(Cl)ccc2c1Cl` (stereo not given), the AC50 was 29.1 µM [falling, single point].
Consider `O=S(=O)(c1ccccc1)c1nc(-c2ccccc2Cl)oc1NCCN1CCOCC1`, for which the AC50 is 18.4 µM [falling, single point].
Regarding `Cc1ccc(C)c(N2CCN(S(=O)(=O)c3c(C(=O)N4CCCCC4)c(C)n(C)c3C)CC2)c1`, the AC50 is 0.631 µM [rising, full curve, poor fit].
Consider `COc1cccc(N2CCN(c3ncnc4c3[nH]c3ccc(F)cc34)CC2C)c1` (stereo not given), for which the half-maximal activity concentration (AC50) is 8.91 µM [falling, partial curve, poor fit].
The value for `Cc1cccnc1NC(=O)C(C)Oc1ccccc1` (stereo not given) was 1.46 µM [rising, partial curve, poor fit].
`CCOC(=O)NC1(Nc2ccc(Cl)cn2)Oc2ccccc2O1`: the AC50 is 20 µM [falling, single point].
Then `COc1ccc(/C=N\NC(=O)COc2ccccc2Cl)cc1Cn1nc(C)cc1C`, with 17.8 µM [rising, single point].
The value for `COc1ccc(NC(=O)CSc2nnc(Cc3ccccc3)c(=O)n2N)c(OC)c1` was 1.3 µM [falling, full curve, poor fit].
On to `COC(=O)Cc1c(C)c2ccc(OCC(C)=O)c(C)c2oc1=O`, for which the AC50 was 29.1 µM [falling, single point].
The value for `Cc1nnc(NC(=O)COc2ccccc2)s1` was 1.16 µM [rising, partial curve, poor fit]; that for `COc1ccc(CCNC(=O)Cn2c(=O)n(CC3CCCO3)c(=O)c3cc(OC)c(OC)cc32)cc1OC` (stereo not given) was 35.5 µM [rising, single point].
In the case of `Brc1ccc(/C=N/Nc2nc3ccccc3o2)cc1`, the AC50 was 11.2 µM [falling, partial curve].
